The values that follow come from PMC7554302, “The Reversible Non-covalent Aggregation Into Fibers of PGLa and Magainin 2 Preserves Their Antimicrobial Activity and Synergism” (Frontiers in Cellular and Infection Microbiology, 2020).

The target in assay [1] is magainin 2a (Xenopus laevis). As to the kind of experiment: condition: only in Tris, HEPES or acetate buffer or pure water, without phosphate (0.5 mM peptide); co-sedimentation; 0.5 mM peptide shaken 1 day in tubes in 50 mM Tris, HEPES or acetate buffer or pure water (no phosphate); 13,000 rpm 30 min; peptide left in the supernatant quantified by HPLC; both purified.
Assay [2] deals with PGLa (Xenopus laevis). As to the kind of experiment: co-sedimentation; 0.5 mM peptide shaken 1 day in tubes in 50 mM sodium phosphate pH 7.4 (with or without 150 mM NaCl; PGLa also in ammonium bicarbonate pH 7.4); 13,000 rpm 30 min; peptide left in the supernatant quantified by HPLC; both purified.
Assay [3] concerns the target PGLa (Xenopus laevis). As to the kind of experiment: thioflavin T fluorescence (fibrillation kinetics); 0.5 mM peptide in Mueller-Hinton medium with 40 uM ThT, 96-well half area plates, 37°C, 300 rpm orbital shaking; for PGLa also phosphate buffers pH 6.5 to 8.5; both purified.
Assay [4] addresses PGLa (Xenopus laevis). As to the kind of experiment: transmission electron microscopy + FTIR; negative-stain TEM of the samples fibrillated in Mueller-Hinton medium; FTIR of fibril pellets prepared in 50 mM phosphate buffer pH 7.4; both purified.

No constants are given. Whether binding was seen depends on the method and setting. Some entries that bind do so weakly or less than the wild type.

With GIGKFLHSAKKFGKAFVGEIMNS (C-terminal amide) [magainin 2a], the binding result in assay [1] is “no binding”.

In the case of GMASKAGAIAGKIAKVALKAL (C-terminal amide) [PGLa], the binding result with PGLa (Xenopus laevis) [2], in the assay with PGLa (Xenopus laevis) [3] and in the assay with PGLa (Xenopus laevis) [4] was “binds” throughout.
